In article PMC4081103:
The exact form of at least one protein or probe is not confirmed. For some of these results: Weaker means in comparison with the reference protein, sequence or condition of that experiment. For some of these results: At least one verdict was read from the data and is not stated in words by the source.

What was measured:
[1] = system: RPA heterotrimer (RPA1, RPA2, RPA3); assay: competition with a labelled probe; details: free DNA increased, PBS, 20 ul, 20-23 C (room temperature), 30 min, 1% agarose gel in 0.5x TBE at 4 C, pH not stated, recombinant protein, label: 5' Cy5.5, single-stranded DNA
[2] = system: RPA heterotrimer (RPA1, RPA2, RPA3); assay: EMSA; details: no PAR, PBS, 20 ul, 20-23 C (room temperature), 30 min, 1% agarose gel in 0.5x TBE at 4 C, pH not stated, recombinant protein, label: 5' Cy5.5, single-stranded DNA

Sequence: TTTTTTTTTTTTTTTTTTTTTTTTTTTTTTTTTTTTTTTTTTTTTTTTTT [Cy5.5-oligodT 50-mer]
- binding result ([1]; 7 nM RPA pre-incubated with 2.5 nM DNA, then high PAR (lanes 8-11, 64-192 ng)): binds more weakly
- binding result ([1]; higher PAR (lanes 5-11) mixed with DNA before RPA): binds more weakly
- binding result ([2]; 1.7 nM RPA, 1 nM DNA): binds
- binding result ([2]; 7 nM RPA pre-incubated with 2.5 nM DNA): binds
